# Library screen at single concentrations

From ChEMBL document CHEMBL3988442, “University of Dundee, Small-Polar-MMV Screening Library” (2021).

Values are the deposited “Percent Effect”, in %.
The record does not define 0% and 100%; most values in the screen are far below 50% and negative numbers occur (in some assays of this library far below -100).
This is an unselected part of the compounds tested.
Two or more numbers in one place are separate tests of the same structure; such repeats can differ widely.

Mtb cholesterol medium: 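Phenotypic screen: M. tuberculosis growth, cholesterol and DPPC medium, 4 days; the read-out is not stated. Tested at 50 µM. The record gives no direction; compounds that gave an IC50 in retests scored well above the rest, so higher reads as more growth inhibition. Of about 69,000 compounds tested this way, about 370 (0.54%) reached 50% or more in at least one test.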
Mtb glucose medium: 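Whole-cell growth test on Mycobacterium tuberculosis, read after 3 days in glucose-containing 7H9 medium; the read-out is not stated. Concentration: 50 µM. Direction is inferred from retests: higher values go with more growth inhibition. Size under these conditions: about 69,000 compounds, about 760 of them at 50% or above in at least one test.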

| Compound | Mtb cholesterol medium | Mtb glucose medium |
|---|---|---|
| `CCC(=O)c1ccc(OCC(=O)NCC2CC(CC)=NO2)cc1` (centres undefined) | -10.38 | 16.93 |
| `COCCn1ccc2cc(C(=O)N3CCN(S(C)(=O)=O)CC3)ccc21` | 3.453 | -2.243 |
| `COc1ccccc1OCC(=O)NS(=O)(=O)c1ccc(F)cc1F` | 18.8 | -7.5 and 13.73 |
| `CCn1cc(S(=O)(=O)N2CCC(C3CCCCN(C)C3=O)CC2)c(C)n1` (centres undefined) | -37.18 and -1.755 | -48.19 |
| `Cc1nnc2n1CC(CNCc1nc(-c3ccsc3)no1)CC2` (centres undefined) | -2.915 | -4.268 |
| `O=C(NCCN1C(=O)CCC1=O)c1nc2ccccc2c(=O)[nH]1` | -4.396 | 24.22 |
| `Cc1cc(C(=O)N2CCN(S(C)(=O)=O)[C@@H](C)C2)c(F)cc1F` | 0.3874 | -0.5945 |
| `Cc1cccnc1NC(=O)c1ccc(-n2cncn2)nn1` | -7.835 | -7.516 and 0.865 |
| `CCn1cncc1CN1CCN(CC2(c3ccc(C)cc3)CC2)CC1.Cl` | -25.4 | -54.23 |
| `CC(=O)N1CCC2(CC1)CN(C(C)=O)CC21CCNC1=O` (centres undefined) | -14.97 | -18.19 |
| `COCCC1(C(=O)O)CCCN(CCc2ccccc2)C1` (centres undefined) | -5.801 | 8.604 |
| `CN(C)CCN1C(=O)CCC12CCCN(C(=O)N(C)C)CC2.O=C(O)C(F)(F)F` (centres undefined) | 6.405 | -1.814 |
| `O=S(=O)(NC1CCCN(c2ncccn2)C1)N1CCCCCC1` (centres undefined) | 0.6833 | 11.44 and -3.605 |
| `Cc1ccc(-c2ncc(C(=O)NS(C)(=O)=O)s2)c(C)c1` | -27.32 | -12.32 |
| `CN1CC=C(c2noc(CCC(=O)N3CCOCC3)n2)CC1` | -5.616 | 14.59 |
| `CCn1nc(CC(C)C)cc1C(=O)N1CCCC(C#N)C1` (centres undefined) | -6.312 | -24.41 |
| `CC(=O)N1CC(=O)N(c2cnn(C)c2)CC12CCN(Cc1cccs1)C2.O=C(O)C(F)(F)F` (centres undefined) | -8.491 and -0.1306 | 11.53 |
| `O=C(NCCC(=O)N1CCCC1)c1cccnc1` | -25.44 | -6.977 and -13.23 |
| `CCc1cc(NC(=O)C2CCCN(C(=O)c3ccncc3)C2)[nH]n1` (centres undefined) | 10.01 | -17.35 |
| `CCS(=O)(=O)N1CCN(C(=O)NC(C)C)CC2(CNC(=O)C2)C1` (centres undefined) | 9.704 | 14.33 |
| `CCOCC1CN(C)Cc2cnn(CC3CCCC3)c21.O=C(O)C(F)(F)F.O=C(O)C(F)(F)F` (centres undefined) | -8.214 | -3.676 |
| `NC(=O)C1CN(C(=O)Nc2ccccc2-c2cccs2)CCO1` (centres undefined) | -17.63 | 21.8 |
| `Nc1ncnc2nc(C3CCN(C(=O)Cc4ccccc4)C3)ccc12` (centres undefined) | -10.12 and -13.48 | -27.05 |
| `O=C(NCCNc1ncccn1)C1CC(=O)N(C2CCCC2)C1` (centres undefined) | -12.21 | 1.21 |
| `NC(=O)C1CN(C(=O)Nc2ccccc2OCC(F)(F)F)CCO1` (centres undefined) | 5.092 | 9.597 and -4.713 |
| `Cc1ccc(N2CCCc3sc(C(=O)NCc4ccncc4)nc32)nn1` | 14.54 | 1.497 and 11.95 |
| `CC(=O)N1CCCN(C(C)C(=O)Nc2ccnn2C(C)C)CC1` (centres undefined) | 16.63 | 18.94 |
| `O=C(O)C(F)(F)F.[H][C@@]12CN(C(=O)CCOC)C[C@]1([H])C(=O)N(Cc1cccc(C)n1)C2` | 18.28 | -17.19 |
| `CCn1cc(CN2CCCC3(CCC(=O)N(CCC(C)C)C3)C2)cn1` (centres undefined) | -3.213 and -5.94 | -12.49 |
| `CCCN1CC2(CCN(C)CC2)CC1C(=O)NCCn1nc(C)nc1C` (centres undefined) | -5.747 | 5.876 |
| `O=C(O)C(F)(F)F.[H][C@@]12COC[C@]1(CNS(C)(=O)=O)CN(Cc1cc(C)on1)C2` | -13.77 | -10.88 |
| `CCn1c(NCc2ccccc2)nc2c(C)nn(C)c2c1=O` | 14.94 | 16.54 |
| `Cc1cc(NC(=O)N2CCN(C)CC2C)n(C)n1` (centres undefined) | 19.42 | 30.8 and -2.037 |
| `CC(C)=CCCC(C)(O)c1cc(C(N)=O)no1` (centres undefined) | 12.56 | 14.12 and 15.99 |
| `CCCc1nc(CN2CCN(CC(O)c3ccccc3)CC2)no1` (centres undefined) | 5.574 | 9.859 |
| `Cc1nc(C2CCCN2C(=O)CCc2ccccc2)ncc1C(N)=O` (centres undefined) | -15.7 | -13.33 |
| `O=C(O)C(F)(F)F.O=C(O)C(F)(F)F.O=C(O)c1c(-c2cccnc2)ncc2c1CCN(Cc1ccccn1)C2` | -13.37 | -40.85 |
| `N#Cc1cccnc1N1CCC(C2CCCCCN2C(N)=O)CC1` (centres undefined) | 5.613 | 20.7 |
| `Cc1nccc(N2CCC(Cc3cccc(C(=O)O)c3)CC2)n1` | 3.78 and -1.404 | 4.537 and 0.7214 |
| `COc1cccc2c1OCCCN(Cc1ccc(C(N)=O)c(=O)[nH]1)C2` | -3.981 | 4.686 and 8.919 |
| `O=C(Nc1ccc(-n2cncn2)nc1)N(CC1CCOC1)C1CC1` (centres undefined) | -2.278 | 5.73 |
| `CCN(CC1CCOC1)C(=O)c1ccc(COc2ccccc2C#N)o1` (centres undefined) | -8.099 | 2.012 |

Repeated from the top, 2 entries:

| Compound | Mtb cholesterol medium | Mtb glucose medium |
|---|---|---|
| `CCC(=O)c1ccc(OCC(=O)NCC2CC(CC)=NO2)cc1` (centres undefined) | -10.38 | 16.93 |
| `COCCn1ccc2cc(C(=O)N3CCN(S(C)(=O)=O)CC3)ccc21` | 3.453 | -2.243 |